Measurements reported in PubChem BioAssay AID1259405 (NCATS, 2018)
Shown is a random part of about 50,000 reagents. Of all reagents, about 4,000 (8%) got an active call. 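Mouse siRNA library applied to hamster cells; one well for each siRNA.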 Reagents against one gene are numbered here.

- Aim: 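Knock-downs that lift recombinant protein yield in hamster ovary cells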 (primary screen)
- System: Chinese hamster CHO-K1 ovary cells with stable secreted eGFP expression
- Reagent: single siRNA against mouse genes, 0.8 pmol siRNA per well (2 µl of 400 nM stock)
- Duration: 3 days
- Read-out: 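Per-well intracellular GFP measured by laser scanning cytometry, plus viability from ATP luminescence, each relative to plate median of non-targeting control wells, in %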
- Reading the numbers: GFP, % of control: higher = more GFP per well, higher productivity; viability (ATP), % of control: higher = more viable cells (more ATP)
- Call rule: 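Called active when intracellular GFP, relative to negative control, is at or above 120%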

Phactr3 (phosphatase and actin regulator 3) #1 | GFP, % of control = 103; viability (ATP), % of control = 47.4; Call = inactive
Phactr3 (phosphatase and actin regulator 3) #2 | GFP, % of control = 111; viability (ATP), % of control = 96.7; Call = inactive
Phactr3 (phosphatase and actin regulator 3) #3 | GFP, % of control = 82.6; viability (ATP), % of control = 77.7; Call = inactive
Pgbd5 (piggyBac transposable element derived 5) #1 | GFP, % of control = 94.5; viability (ATP), % of control = 65.8; Call = inactive
Pgbd5 (piggyBac transposable element derived 5) #2 | GFP, % of control = 76.6; viability (ATP), % of control = 77.6; Call = inactive
Pgbd5 (piggyBac transposable element derived 5) #3 | GFP, % of control = 60.8; viability (ATP), % of control = 70.8; Call = inactive
Or8c20 (olfactory receptor family 8 subfamily C member 20) #1 | GFP, % of control = 84.8; viability (ATP), % of control = 67.7; Call = inactive
Or8c20 (olfactory receptor family 8 subfamily C member 20) #2 | GFP, % of control = 86.3; viability (ATP), % of control = 45.4; Call = inactive
Or8c20 (olfactory receptor family 8 subfamily C member 20) #3 | GFP, % of control = 86.1; viability (ATP), % of control = 95.5; Call = inactive
Thsd4 (thrombospondin, type I, domain containing 4) #1 | GFP, % of control = 102; viability (ATP), % of control = 87.4; Call = inactive
Thsd4 (thrombospondin, type I, domain containing 4) #2 | GFP, % of control = 97.5; viability (ATP), % of control = 74.1; Call = inactive
Men1 (multiple endocrine neoplasia 1) #1 | GFP, % of control = 87.9; viability (ATP), % of control = 87.3; Call = inactive
Men1 (multiple endocrine neoplasia 1) #2 | GFP, % of control = 159; viability (ATP), % of control = 68.1; Call = active
Men1 (multiple endocrine neoplasia 1) #3 | GFP, % of control = 94.7; viability (ATP), % of control = 52.3; Call = inactive
Or4c12 (olfactory receptor family 4 subfamily C member 12) #1 | GFP, % of control = 83.7; viability (ATP), % of control = 65.1; Call = inactive
Or4c12 (olfactory receptor family 4 subfamily C member 12) #2 | GFP, % of control = 30.8; viability (ATP), % of control = 25.5; Call = inactive
Or4c12 (olfactory receptor family 4 subfamily C member 12) #3 | GFP, % of control = 99.2; viability (ATP), % of control = 112; Call = inactive
Soat1 (sterol O-acyltransferase 1) #1 | GFP, % of control = 79; viability (ATP), % of control = 68.5; Call = inactive
Soat1 (sterol O-acyltransferase 1) #2 | GFP, % of control = 89.9; viability (ATP), % of control = 81.6; Call = inactive
Soat1 (sterol O-acyltransferase 1) #3 | GFP, % of control = 89.5; viability (ATP), % of control = 111; Call = inactive
Hsp90aa1 (heat shock protein 90, alpha (cytosolic), class A member 1) #1 | GFP, % of control = 43.1; viability (ATP), % of control = 50.9; Call = inactive
Hsp90aa1 (heat shock protein 90, alpha (cytosolic), class A member 1) #2 | GFP, % of control = 106; viability (ATP), % of control = 51.2; Call = inactive
Hsp90aa1 (heat shock protein 90, alpha (cytosolic), class A member 1) #3 | GFP, % of control = 55.4; viability (ATP), % of control = 73; Call = inactive
Acsl3 (acyl-CoA synthetase long-chain family member 3) #1 | GFP, % of control = 83.1; viability (ATP), % of control = 72.8; Call = inactive
Acsl3 (acyl-CoA synthetase long-chain family member 3) #2 | GFP, % of control = 45.5; viability (ATP), % of control = 52.6; Call = inactive
Acsl3 (acyl-CoA synthetase long-chain family member 3) #3 | GFP, % of control = 113; viability (ATP), % of control = 161; Call = inactive
Zmat2 (zinc finger, matrin type 2) #1 | GFP, % of control = 97.9; viability (ATP), % of control = 94.6; Call = inactive
Zmat2 (zinc finger, matrin type 2) #2 | GFP, % of control = 116; viability (ATP), % of control = 71.8; Call = inactive
Zmat2 (zinc finger, matrin type 2) #3 | GFP, % of control = 86; viability (ATP), % of control = 94.8; Call = inactive
Apobec2 #1 | GFP, % of control = 99.8; viability (ATP), % of control = 104; Call = inactive
Apobec2 #2 | GFP, % of control = 81.4; viability (ATP), % of control = 111; Call = inactive
Apobec2 #3 | GFP, % of control = 182; viability (ATP), % of control = 84.7; Call = active
Sbno2 (strawberry notch 2) #1 | GFP, % of control = 104; viability (ATP), % of control = 88.4; Call = inactive
Sbno2 (strawberry notch 2) #2 | GFP, % of control = 67.4; viability (ATP), % of control = 83.7; Call = inactive
Sbno2 (strawberry notch 2) #3 | GFP, % of control = 93.3; viability (ATP), % of control = 79.4; Call = inactive
Gpr84 (G protein-coupled receptor 84) #1 | GFP, % of control = 102; viability (ATP), % of control = 107; Call = inactive
Gpr84 (G protein-coupled receptor 84) #2 | GFP, % of control = 81.5; viability (ATP), % of control = 81.6; Call = inactive
Gpr84 (G protein-coupled receptor 84) #3 | GFP, % of control = 52.2; viability (ATP), % of control = 66; Call = inactive
Cc2d1b (coiled-coil and C2 domain containing 1B) #1 | GFP, % of control = 43.9; viability (ATP), % of control = 35.6; Call = inactive
Cc2d1b (coiled-coil and C2 domain containing 1B) #2 | GFP, % of control = 15.4; viability (ATP), % of control = 14.8; Call = inactive
Cc2d1b (coiled-coil and C2 domain containing 1B) #3 | GFP, % of control = 91.6; viability (ATP), % of control = 75.3; Call = inactive

4 entries from above, arranged by “GFP, % of control”, low to high.
Or4c12 (olfactory receptor family 4 subfamily C member 12) #2 | GFP, % of control = 30.8; viability (ATP), % of control = 25.5; Call = inactive
Soat1 (sterol O-acyltransferase 1) #1 | GFP, % of control = 79; viability (ATP), % of control = 68.5; Call = inactive
Or4c12 (olfactory receptor family 4 subfamily C member 12) #1 | GFP, % of control = 83.7; viability (ATP), % of control = 65.1; Call = inactive
Or4c12 (olfactory receptor family 4 subfamily C member 12) #3 | GFP, % of control = 99.2; viability (ATP), % of control = 112; Call = inactive
